# From US20070287718A1 (priority 2003, published 2007)
# Assays:
# XG6 = assay: cells; details: Homo sapiens, XG6, 48 h, read-out: IC50 of proliferation inhibition
# XG1 = assay: cells; details: Homo sapiens, 48 h, read-out: IC50 of proliferation inhibition
# MDN = assay: cells; details: Homo sapiens, 48 h, read-out: IC50 of proliferation inhibition
SMILES,IC50 (PKC),IC50 (XG6),IC50 (XG1),IC50 (MDN)
"CC[C@H](CO)Nc1nc(NCc2ccccc2)c2ncn(C(C)C)c2n1 (racemic) [roscovitine, 2-[(1-ethyl-2-hydroxyethyl)amino]-6-benzylamine-9-isopropylpurine]",> 50 µM,,,
"CC[C@H](CO)Nc1nc(NCc2ccccc2)c2ncn(C(C)C)c2n1 (single isomer, unassigned) [CYC202, 2-(1-R-hydroxymethylpropylamino)-6-benzylamino-9-isopurine]",,15 µM,15 µM,6 µM
